# Results from the supplement of paper PMC4604168 (melanoma cell lines).
# The other results are listed elsewhere or left out. Repeats are few or missing, and single values can be far off.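 Cells were imaged in 1,536-well plates, and nuclei stained with an antibody against cleaved PARP were counted against all DNA-stained nuclei to give the apoptosis fraction. Screening doses were chosen to leave most cells alive, and resting and induced cleaved-PARP levels differ strongly between cell lines.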
# Legend:
# Test in all cases: cleaved PARP positive nuclei fraction relative to DMSO control; melanoma cells; higher = more apoptosis
# Details in all cases: library dose: low library concentration; 72 h
# MZ2-MEL = system: MZ2-MEL
# MeWo = system: MeWo
# RPMI7951 = system: RPMI7951
# RVH-421 = system: RVH-421
# SkMel28 = system: SkMel28
# SkMel2 = system: SkMel2
# SkMel30 = system: SkMel30
# UACC62 = system: UACC62
# WM115 = system: WM115
# WM1716 = system: WM1716
# WM1745 = system: WM1745
# WM3526 = system: WM3526
# WM3619 = system: WM3619
# WM451Lu = system: WM451Lu
SMILES,cleaved PARP positive nuclei fraction (MZ2-MEL),cleaved PARP positive nuclei fraction (MeWo),cleaved PARP positive nuclei fraction (RPMI7951),cleaved PARP positive nuclei fraction (RVH-421),cleaved PARP positive nuclei fraction (SkMel28),cleaved PARP positive nuclei fraction (SkMel2),cleaved PARP positive nuclei fraction (SkMel30),cleaved PARP positive nuclei fraction (UACC62),cleaved PARP positive nuclei fraction (WM115),cleaved PARP positive nuclei fraction (WM1716),cleaved PARP positive nuclei fraction (WM1745),cleaved PARP positive nuclei fraction (WM3526),cleaved PARP positive nuclei fraction (WM3619),cleaved PARP positive nuclei fraction (WM451Lu)
"C[C@]1(O)C[C@@H](c2nc(-c3ccc4ccc(-c5ccccc5)nc4c3)c3c(N)nccn32)C1 + C#Cc1cccc(Nc2ncnc3cc(OCCOC)c(OCCOC)cc23)c1 [erlotinib] (first compound 0.4 µM, partner dose 0.8 µM)",142%,90.4%,199%,124%,69.8%,87.1%,60.1%,43.5%,54%,101%,124%,74.3%,97.1%,89.4%
"COc1ccc(C2=N[C@@H](c3ccc(Cl)cc3)[C@@H](c3ccc(Cl)cc3)N2C(=O)N2CCNC(=O)C2)c(OC(C)C)c1 [Nutlin-3] + CS(=O)(=O)CCNCc1ccc(-c2ccc3ncnc(Nc4ccc(OCc5cccc(F)c5)c(Cl)c4)c3c2)o1 [lapatinib] (first compound 0.1 µM, partner dose 0.8 µM)",66.9%,40.8%,21.4%,114%,73%,155%,63.9%,267%,69.7%,50.6%,77.2%,20%,83.5%,17.9%
"COc1ccc(C2=N[C@@H](c3ccc(Cl)cc3)[C@@H](c3ccc(Cl)cc3)N2C(=O)N2CCNC(=O)C2)c(OC(C)C)c1 [Nutlin-3] + NC1(c2ccc(-c3nc4ccn5c(=O)[nH]nc5c4cc3-c3ccccc3)cc2)CCC1 [MK2206] (first compound 0.1 µM, partner dose 0.4 µM)",118%,58.3%,61.1%,53.7%,119%,120%,234%,185%,208%,204%,417%,21.1%,102%,105%
"CCCCCCCCc1ccc(CCC(N)(CO)CO)cc1 [fingolimod] + Nc1ncn([C@H]2C[C@H](O)[C@@H](CO)O2)c(=O)n1 [decitabine] (first compound 2 µM, partner dose 0.1 µM)",37.1%,142%,172%,40.4%,108%,146%,86%,184%,188%,57.3%,119%,54.7%,112%,109%
"CCCCCCCCc1ccc(CCC(N)(CO)CO)cc1 [fingolimod] + Nc1cccc2c1CN(C1CCC(=O)NC1=O)C2=O [lenalidomide] (first compound 2 µM, partner dose 1 µM)",146%,27.8%,51.3%,108%,88.3%,125%,70.4%,78%,47.6%,89.9%,112%,87%,122%,85.4%
"CCN(CC)CCNC(=O)c1c(C)[nH]c(/C=C2\C(=O)Nc3ccc(F)cc32)c1C [sunitinib] + Cn1c(=O)n(-c2ccc(C(C)(C)C#N)cc2)c2c3cc(-c4cnc5ccccc5c4)ccc3ncc21 [NVP-BEZ235] (first compound 0.4 µM, partner dose 0.004 µM)",99.5%,179%,74.5%,55.5%,258%,96.1%,86.5%,534%,198%,27.8%,108%,56.9%,69.2%,88.5%
"NC(=O)c1ccc(N(C(N)=O)c2c(F)cccc2F)nc1-c1ccc(F)cc1F + NC1(c2ccc(-c3nc4ccn5c(=O)[nH]nc5c4cc3-c3ccccc3)cc2)CCC1 [MK2206] (first compound 0.4 µM, partner dose 0.4 µM)",158%,68.7%,457%,288%,65.1%,194%,42.2%,346%,372%,136%,102%,259%,103%,315%
"C[C@]1(O)C[C@@H](c2nc(-c3ccc4ccc(-c5ccccc5)nc4c3)c3c(N)nccn32)C1 + CC(C)C[C@H](NC(=O)[C@H](Cc1ccccc1)NC(=O)c1cnccn1)B(O)O [Bortezomib] (first compound 0.4 µM, partner dose 0.001 µM)",113%,59.1%,138%,38.1%,43.5%,37.4%,27.4%,22.3%,61.6%,123%,172%,39.3%,149%,34.4%
"CN(c1ncccc1CNc1nc(Nc2ccc3c(c2)CC(=O)N3)ncc1C(F)(F)F)S(C)(=O)=O + NC1(c2ccc(-c3nc4ccn5c(=O)[nH]nc5c4cc3-c3ccccc3)cc2)CCC1 [MK2206] (first compound 0.08 µM, partner dose 0.4 µM)",205%,62.4%,48.1%,127%,29.5%,123%,159%,55.1%,313%,189%,107%,84.3%,98.2%,63.9%
"Cn1cnc2c(F)c(Nc3ccc(Br)cc3Cl)c(C(=O)NOCCO)cc21 [selumetinib] + CCCCCCCCc1ccc(CCC(N)(CO)CO)cc1 [fingolimod] (first compound 0.015 µM, partner dose 2 µM)",150%,43.6%,95.8%,118%,97.9%,223%,169%,466%,198%,74.4%,119%,112%,122%,824%
"C[C@]1(O)C[C@@H](c2nc(-c3ccc4ccc(-c5ccccc5)nc4c3)c3c(N)nccn32)C1 + CN1CCN(c2ccc3nc(-c4c(N)c5c(F)cccc5[nH]c4=O)[nH]c3c2)CC1 [Dovitinib] (first compound 0.4 µM, partner dose 0.1 µM)",73.3%,79.4%,92.9%,78.7%,189%,101%,55%,244%,178%,133%,109%,89.6%,101%,204%
"NC1(c2ccc(-c3nc4ccn5c(=O)[nH]nc5c4cc3-c3ccccc3)cc2)CCC1 + Cc1nc(Nc2ncc(C(=O)Nc3c(C)cccc3Cl)s2)cc(N2CCN(CCO)CC2)n1 [dasatanib] (first compound 0.4 µM, partner dose 0.004 µM)",84.7%,50.9%,201%,67.5%,114%,77.8%,341%,194%,644%,106%,142%,119%,95%,64.9%
"CC1(C)CCC(c2ccc(Cl)cc2)=C(CN2CCN(c3ccc(C(=O)NS(=O)(=O)c4ccc(N[C@H](CCN5CCOCC5)CSc5ccccc5)c(S(=O)(=O)C(F)(F)F)c4)cc3)CC2)C1 + CC(=O)c1c(C)c2cnc(Nc3ccc(N4CCNCC4)cn3)nc2n(C2CCCC2)c1=O [palbociclib] (first compound 0.4 µM, partner dose 0.04 µM)",247%,65%,200%,55.3%,128%,51.1%,297%,138%,233%,75.2%,511%,54.9%,139%,59.2%
"C[C@]1(O)C[C@@H](c2nc(-c3ccc4ccc(-c5ccccc5)nc4c3)c3c(N)nccn32)C1 + CNC(=O)c1cc(Oc2ccc(NC(=O)Nc3ccc(Cl)c(C(F)(F)F)c3)cc2)ccn1 [sorafenib] (first compound 0.4 µM, partner dose 0.4 µM)",110%,55.5%,110%,124%,36.6%,109%,43%,363%,176%,25.9%,132%,86.4%,98.8%,179%
"NC(=O)c1ccc(N(C(N)=O)c2c(F)cccc2F)nc1-c1ccc(F)cc1F + Cc1cc(Nc2cc(N3CCN(C)CC3)nc(/C=C/c3ccccc3)n2)n[nH]1 [ENMD2076] (first compound 0.4 µM, partner dose 0.04 µM)",58.6%,126%,35.2%,29%,95.2%,115%,87.3%,107%,187%,103%,101%,40%,64.1%,50.9%
"CC1(C)CCC(c2ccc(Cl)cc2)=C(CN2CCN(c3ccc(C(=O)NS(=O)(=O)c4ccc(N[C@H](CCN5CCOCC5)CSc5ccccc5)c(S(=O)(=O)C(F)(F)F)c4)cc3)CC2)C1 + CCN(CC)CCNC(=O)c1c(C)[nH]c(/C=C2\C(=O)Nc3ccc(F)cc32)c1C [sunitinib] (first compound 0.4 µM, partner dose 0.4 µM)",202%,554%,181%,164%,179%,142%,179%,147%,662%,142%,1040%,69.2%,139%,68.4%
"COc1ccc(C2=N[C@@H](c3ccc(Cl)cc3)[C@@H](c3ccc(Cl)cc3)N2C(=O)N2CCNC(=O)C2)c(OC(C)C)c1 [Nutlin-3] + O=C(O)[C@@H]1[O][Sb](=[O])([O][Sb]2(=[O])[O][C@H]([C@H](O)CO)[C@H](O)[C@H](C(=O)O)[O]2)[O][C@H]([C@H](O)CO)[C@@H]1O [stibogluconate] (first compound 0.1 µM, partner dose 2 µM)",140%,61.8%,104%,316%,98.9%,105%,212%,128%,172%,79.4%,98.4%,17.3%,222%,152%
"NC(=O)c1ccc(N(C(N)=O)c2c(F)cccc2F)nc1-c1ccc(F)cc1F + Cn1c(Nc2ccc(C(F)(F)F)cc2)nc2cc(Oc3ccnc(-c4ncc(C(F)(F)F)[nH]4)c3)ccc21 [CHIR265] (first compound 0.4 µM, partner dose 0.08 µM)",86.4%,91.9%,51.2%,78%,93.8%,169%,72.4%,158%,200%,62.1%,114%,27.3%,97.2%,27.1%
"CCCCCCCCc1ccc(CCC(N)(CO)CO)cc1 [fingolimod] + Cn1c(=O)n(-c2ccc(C(C)(C)C#N)cc2)c2c3cc(-c4cnc5ccccc5c4)ccc3ncc21 [NVP-BEZ235] (first compound 2 µM, partner dose 0.004 µM)",118%,115%,183%,99.1%,65.3%,69.1%,101%,282%,103%,48%,243%,47.3%,116%,22.6%

# 5 entries from above, set out differently.
SMILES	cleaved PARP positive nuclei fraction (MZ2-MEL)	cleaved PARP positive nuclei fraction (MeWo)	cleaved PARP positive nuclei fraction (RPMI7951)	cleaved PARP positive nuclei fraction (RVH-421)	cleaved PARP positive nuclei fraction (SkMel28)	cleaved PARP positive nuclei fraction (SkMel2)	cleaved PARP positive nuclei fraction (SkMel30)	cleaved PARP positive nuclei fraction (UACC62)	cleaved PARP positive nuclei fraction (WM115)	cleaved PARP positive nuclei fraction (WM1716)	cleaved PARP positive nuclei fraction (WM1745)	cleaved PARP positive nuclei fraction (WM3526)	cleaved PARP positive nuclei fraction (WM3619)	cleaved PARP positive nuclei fraction (WM451Lu)
NC(=O)c1ccc(N(C(N)=O)c2c(F)cccc2F)nc1-c1ccc(F)cc1F + NC1(c2ccc(-c3nc4ccn5c(=O)[nH]nc5c4cc3-c3ccccc3)cc2)CCC1 [MK2206] (first compound 0.4 µM, partner dose 0.4 µM)	158%	68.7%	457%	288%	65.1%	194%	42.2%	346%	372%	136%	102%	259%	103%	315%
C[C@]1(O)C[C@@H](c2nc(-c3ccc4ccc(-c5ccccc5)nc4c3)c3c(N)nccn32)C1 + CC(C)C[C@H](NC(=O)[C@H](Cc1ccccc1)NC(=O)c1cnccn1)B(O)O [Bortezomib] (first compound 0.4 µM, partner dose 0.001 µM)	113%	59.1%	138%	38.1%	43.5%	37.4%	27.4%	22.3%	61.6%	123%	172%	39.3%	149%	34.4%
CN(c1ncccc1CNc1nc(Nc2ccc3c(c2)CC(=O)N3)ncc1C(F)(F)F)S(C)(=O)=O + NC1(c2ccc(-c3nc4ccn5c(=O)[nH]nc5c4cc3-c3ccccc3)cc2)CCC1 [MK2206] (first compound 0.08 µM, partner dose 0.4 µM)	205%	62.4%	48.1%	127%	29.5%	123%	159%	55.1%	313%	189%	107%	84.3%	98.2%	63.9%
Cn1cnc2c(F)c(Nc3ccc(Br)cc3Cl)c(C(=O)NOCCO)cc21 [selumetinib] + CCCCCCCCc1ccc(CCC(N)(CO)CO)cc1 [fingolimod] (first compound 0.015 µM, partner dose 2 µM)	150%	43.6%	95.8%	118%	97.9%	223%	169%	466%	198%	74.4%	119%	112%	122%	824%
C[C@]1(O)C[C@@H](c2nc(-c3ccc4ccc(-c5ccccc5)nc4c3)c3c(N)nccn32)C1 + CN1CCN(c2ccc3nc(-c4c(N)c5c(F)cccc5[nH]c4=O)[nH]c3c2)CC1 [Dovitinib] (first compound 0.4 µM, partner dose 0.1 µM)	73.3%	79.4%	92.9%	78.7%	189%	101%	55%	244%	178%	133%	109%	89.6%	101%	204%
